From PubChem BioAssay AID651804 (National Center for Advancing Translational Sciences (NCATS), 2012)
About 20 (2%) of roughly 1,200 compounds were called active. Not shown: some 23% with an inconclusive outcome. Calls follow the shape of the dose curve; as a rule, active = well fitted inhibition curve with a large enough effect; inconclusive = small, poorly fitted or top-dose-only effect; inactive = no such curve, though single readings can be large or run the other way. Some of the results follow.

By UniProt entry, the sequences of proteins in these tests, tags left out. Where a name states a change or a piece, a line headed by the entry shows the natural chain unless it says otherwise.
UniProt P11308: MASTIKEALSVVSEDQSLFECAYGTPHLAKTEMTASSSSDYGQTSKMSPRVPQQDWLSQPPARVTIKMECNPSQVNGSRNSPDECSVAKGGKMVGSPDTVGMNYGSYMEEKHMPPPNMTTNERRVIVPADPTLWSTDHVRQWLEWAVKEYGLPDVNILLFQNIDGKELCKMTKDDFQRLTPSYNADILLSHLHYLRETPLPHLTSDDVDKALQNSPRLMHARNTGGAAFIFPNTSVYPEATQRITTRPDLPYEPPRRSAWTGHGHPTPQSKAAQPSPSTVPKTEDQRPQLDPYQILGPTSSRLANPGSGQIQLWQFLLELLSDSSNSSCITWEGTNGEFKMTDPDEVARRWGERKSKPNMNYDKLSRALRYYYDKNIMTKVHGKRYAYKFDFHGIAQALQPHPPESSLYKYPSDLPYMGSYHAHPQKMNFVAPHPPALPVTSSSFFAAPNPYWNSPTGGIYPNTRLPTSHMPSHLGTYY

The compounds below were run against Transcriptional regulator ERG (Homo sapiens) (UniProt P11308) (assay: qHTS for Small Molecule Inhibitors of the ERG Ets/DNA interaction: HTRF assay against cherry picks). Conditions: His-ERG Ets domain with biotin-DNA; series mostly up to 154 µM; activity change, negative = inhibition: at the top concentration.
From the text: The Ets family of proteins is a family of ~30 conserved transcription factors defined by the presence of an ~85 amino acid domain referred to as the Ets domain, which mediates sequence-specific DNA binding to a core DNA element GGAA/T.The Ets family member ERG has been linked to several neoplasms. […] More extensive studies of the effects of over-expression of ERG in prostate cells have recently been carried out and have shown that over-expression of ERG results in increased invasion. […] We will carry out a high throughout screen to identify inhibitors of the interaction between ERG and DNA using a fluorescence polarization (FP) assay with a His-tagged ERG Ets domain and fluorescently-labeled DNA probes to develop small molecule inhibitors of this interaction as probes to test this hypothesis and lay the groundwork for the development of targeted therapies against ERG. This is the counterscreen against the cherry picks. NIH Molecular Libraries Probe Production Network [MLPCN] NIH Chemical Genomics Center [NCGC] Grant: NS066464 PI Name: John Bushweller, University of Virgina
2 ul of protein solution (200 nM ERG domain in 300mM KCl, 50mM Tris-HCl, 1mM EDTA, 1mM DTT, pH 7.5); 20 nl Control plate and compound library plate; 2 ul of 200 nM biotin-DNA; incubate for 10 min at RT; 1 ul of anti-His antibody conjugated to the long-life fluorescent cryptate donner […] (5ng/ul) and streptavidin conjugated to the acceptor compound […] (0.2 ng/ul) mix; incubate 10 min and measure FRET (Excitation = 320 nm, Emission = 615, 665 nm).

Row | Compound | activity change, negative = inhibition
1 | CC1(C)C(=O)NCCN1C(=O)c1ccc2nc(Cc3ccccc3F)oc2c1 | inactive: -29.1%
2 | COc1ccc(-n2nc(C(=O)NCC(=O)Nc3cc(OC)ccc3OC)c3ccccc3c2=O)cc1 | inactive: -15.6%
3 | CCCN(CCC)Cc1c(C(=O)N/N=C/c2cccs2)nnn1-c1nonc1N | inactive: -26.5%
4 | CCCCC1=NN(C(=O)c2ccco2)C(O)(C(F)(F)F)C1 (stereo not drawn) | inactive: -8.75%
5 | CC1(C)C2CCC1(CS(=O)(=O)N1CCC(C(N)=O)CC1)C(=O)C2 (stereo not drawn) | inactive: 3.34%
6 | COc1ccc(-c2nn3c(=O)cc(CN4CCN(C(=O)/C=C/c5ccccc5)CC4)nc3s2)cc1 | inactive: -10.7%
7 | O=S(=O)(NCCNS(=O)(=O)c1ccc(F)cc1)c1ccc(F)cc1 | inactive: -20.7%
8 | O=C(COC(=O)c1cccc(-n2cnnn2)c1)c1ccccc1 | inactive: -11.8%
9 | COC(=O)c1ccc(C2=NOC(C)(c3sc(-c4ccccc4)nc3C)C2)cc1 (stereo not drawn) | inactive: -3.45%
10 | COc1ccccc1C(=O)Nn1c(-c2cccs2)nc2ccccc2c1=O | inactive: -15%
11 | COc1cc(CCC(=O)Nc2ccc(Br)c(C(F)(F)F)c2)cc(OC)c1OC | inactive: -23.7%
12 | O=C(CN1C(=O)NC2(CCCC2)C1=O)NNC(=O)c1ccc(Cl)cc1 | inactive: -28.5%
13 | Cc1cc(C)nc(N2C(=O)CC(Cc3ccc(Cl)cc3)C2=O)n1 (stereo not drawn) | inactive: -18.5%
14 | O=c1o[nH]c(-c2ccccc2)c1-c1ccccc1 | inactive: -14.2%
15 | O=C(Oc1ccc(Br)cc1)c1n[nH]c(=O)c2ccccc12 | inactive: -33.9%
16 | Nn1c(Cc2ccccc2)nc2sc3c(c2c1=O)CCC3 | inactive: -18.9%
17 | COc1ccc(S(=O)(=O)N2CC(C)OC(C)C2)cc1C(=O)N1CCCCC1 (stereo not drawn) | inactive: -1.64%
18 | O=c1[nH]cc(S(=O)(=O)Nc2ccc3c(c2)OCO3)c(=O)[nH]1 | inactive: -20.2%
19 | Cc1cc(/C=C2\C(=N)N3N=C(C(C)C)SC3=NC2=O)c(C)n1-c1ccccc1 | inactive: -18.1%
20 | CCc1ccccc1NC(=O)CSc1nnc(COc2ccccc2Cl)o1 | inactive: 7.59%
21 | COc1ccc(Oc2ccc(N/C=C3\CCCC3=O)cc2)cc1 | inactive: -20.3%
22 | COC(=O)c1ccsc1NC(=O)c1cccc(OC)c1 | inactive: 28.2%
23 | CC(=O)c1cc(-c2ccccc2)n(CCC(=O)NC(C)(C)C)c1C | inactive: -23.8%
24 | Cc1ccc(C)c(NC(=S)/C(=C(\[O-])c2ccc(OC(F)F)cc2)[n+]2ccccc2)c1 | inactive: -29%
25 | CCOC(=O)C1CCC(CN(Cc2ccccc2C)S(=O)(=O)c2ccc([N+](=O)[O-])cc2)CC1 (stereo not drawn) | inactive: -0.743%
26 | Cc1ccc(NS(=O)(=O)c2ccc(CCC(=O)NCCCOC(C)C)cc2)cc1 | inactive: -6.37%
27 | C[N+]1(C)C2CC(OC(=O)C(CO)c3ccccc3)CC1C1OC12 (stereo not drawn) | inactive: -0.584%

Rewritten tab-delimited: part of the list above.
Row	Compound	activity change, negative = inhibition
23	CC(=O)c1cc(-c2ccccc2)n(CCC(=O)NC(C)(C)C)c1C	inactive: -23.8%
24	Cc1ccc(C)c(NC(=S)/C(=C(\[O-])c2ccc(OC(F)F)cc2)[n+]2ccccc2)c1	inactive: -29%
25	CCOC(=O)C1CCC(CN(Cc2ccccc2C)S(=O)(=O)c2ccc([N+](=O)[O-])cc2)CC1 (stereo not drawn)	inactive: -0.743%

Going on with the list.

Row | Compound | activity change, negative = inhibition
28 | CN(C(=O)COC(=O)c1ccc(F)c(S(=O)(=O)N2CCOCC2)c1)C1CCS(=O)(=O)C1 (stereo not drawn) | inactive: -15.2%
29 | CCOC(=O)c1sc(NC(=O)c2c(-c3ccccc3)c(-c3ccccc3)nn(C)c2=O)nc1C | inactive: -14.1%
30 | Cc1ccc2c(COC(=O)c3ccccc3Br)cc(=O)oc2c1 | inactive: -8.54%
31 | Cc1cc(C)cc(NC(=O)CCOc2ccccc2)c1 | inactive: -18.5%
32 | COc1ccc(CCn2c(C)cc(C(=O)COC(=O)c3cnc(C)cn3)c2C)cc1 | inactive: -5.2%
33 | CC(C)CN1C2CCCC1CC(NC(=S)NCc1ccco1)C2 (stereo not drawn) | inactive: -25.1%
34 | COc1ccc(NC(=O)C2CCN(C(=O)C3CC(=O)N(c4ccc(C)cc4)C3)CC2)cc1 (stereo not drawn) | inactive: 0.743%
35 | CNCC(O)CN1CCN(c2ccccc2OC)CC1 (stereo not drawn) | inactive: -19.5%
36 | CCOC(=O)C(CC)Sc1ccc2nnc(-c3cccnc3)n2n1 (stereo not drawn) | inactive: -10.8%
37 | COc1ccc2cc(CO)c(Cl)nc2c1 | inactive: -30.9%
38 | CCOc1ccc(NC(=O)CSc2nc(-c3cccs3)cc(C(F)(F)F)c2C#N)cc1 | inactive: 17.9%
39 | Cc1ccc(NC(=O)C2CC(O)CN2C(=O)OCc2ccccc2)c(C)c1 (stereo not drawn) | inactive: 1.01%
40 | Cc1ccc(NCC(=O)N/N=C/c2c[nH]c3ccccc23)cc1 | inactive: -20.4%
41 | CCOC(=O)CSc1nncc2ccc(OC)c(OC)c12 | inactive: -31%
42 | Oc1ccc(NCc2cccs2)cc1 | inactive: -30%
43 | COc1ccccc1CNC(=O)CCNC(=O)C1CCN(S(=O)(=O)c2ccccc2)CC1 | inactive: -23.7%
44 | CC(C)n1c(SCc2ccccc2F)nc2c1c(=O)n(C)c(=O)n2C | inactive: -19.2%
45 | Cc1c(NC(=O)c2cc(-n3cnnc3)ccc2Cl)cccc1-c1nc2ccccc2s1 | inactive: -29.4%
46 | Cc1ccc(C)c(NC(=O)COC(=O)c2ccc[n+]([O-])c2)c1 | inactive: 2.55%
47 | COc1cc(C(=O)Nc2ccc(S(=O)(=O)Nc3cc(C)nc(C)n3)cc2)cc(OC)c1OC | inactive: -10.3%
48 | Cc1cc(C[n+]2ncsc2N)c2ncccc2c1 | inactive: -26.6%
49 | Cc1nonc1C1CCCN1C(=O)c1cc(COc2ccc(F)cc2Cl)on1 (stereo not drawn) | inactive: -30.1%
50 | O=S(=O)(c1ccc(Cl)cc1)N1CCN(CCc2ccccc2)CC1 | inactive: -26.1%
51 | Cc1cc(F)ccc1NC(=O)c1ccc(NS(=O)(=O)c2cc(C(C)(C)C)ccc2C)cc1 | inactive: -11.9%
52 | COc1cc(CNCC2CCCO2)ccc1OCC(N)=O (stereo not drawn) | inactive: -3.61%
53 | COC(=O)C(CSCc1ccccc1)NC(=O)CSc1nc(N)cc(=O)[nH]1 (stereo not drawn) | inactive: -28.6%
